PubChem BioAssay AID743121 – NCATS | 2013

- Screen: 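Knock-downs that sensitise breast cancer cells to camptothecin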 (primary screen)
- System: MDA-MB-231 cells, a human breast cancer line
- Knock-down reagent: single siRNA against human genes, 20 nM siRNA (0.8 pmol per well)
- Duration: 120 h (drug added 48 h after transfection, read 72 h later)
- Challenge: camptothecin 20 nM (about EC30) for 72 h; vehicle 0.1% DMSO in parallel plates
- Measurement: 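CellTiter-Glo ATP signal, scaled to control siRNA as percent viability; sensitisation given as log2 of untreated divided by camptothecin-treated viability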
- Scale: log2 vehicle/camptothecin viability: higher = stronger sensitisation to camptothecin; viability with camptothecin and viability without drug: higher = more viable cells
- Rule for the call: 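Active genes have an RSA gene-level p-value below 0.001, computed from the ratios of their separate siRNAs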
Shown is a random part of about 26,000 reagents. 167 of all reagents (0.63%) count as active. 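Calls are per gene from RSA p-values that are not deposited; an individual active-marked siRNA can sensitise only weakly.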 Reagents against one gene are numbered here. No sequences are given here.

target gene	reagent	log2 vehicle/camptothecin viability	viability with camptothecin (% of control)	viability without drug (% of control)	outcome
TNXA	1	-0.0912	79.9	75	inactive
TNXA	2	-0.0772	89.5	84.8	inactive
TNXA	3	-0.458	71.3	51.9	inactive
TNXA	4	-0.433	56.3	41.7	inactive
IL2RG	1	-0.0251	104	102	inactive
IL2RG	2	-0.325	33.7	26.9	inactive
IL2RG	3	-0.16	85.8	76.8	inactive
IL2RG	4	-0.197	81.8	71.4	inactive
ADAM12	1	-0.114	87.1	80.5	inactive
ADAM12	2	-0.531	50.6	35	inactive
ADAM12	3	-0.232	118	100	inactive
ADAM12	4	-0.136	103	93.3	inactive
DIMT1	1	0.423	32.1	43.1	inactive
DIMT1	2	-0.296	92.7	75.4	inactive
DIMT1	3	-0.199	95.9	83.5	inactive
DIMT1	4	-0.176	65.4	57.9	inactive
CD180	1	-0.153	84.7	76.2	inactive
CD180	2	-0.117	97.6	89.9	inactive
CD180	3	0.0588	101	105	inactive
CCSER2	1	-0.275	76.9	63.5	inactive
CCSER2	2	-0.421	57.8	43.2	inactive
CCSER2	3	0.125	59.9	65.3	inactive
CCSER2	4	1.91	16.8	62.8	inactive
PEX10	1	0.00551	103	104	inactive
PEX10	2	0.0242	102	104	inactive
PEX10	3	-0.127	86.9	79.5	inactive
PEX10	4	-0.232	92.7	78.9	inactive
CCNB1	1	-0.146	57.8	52.3	inactive
CCNB1	2	-0.392	73.2	55.8	inactive
CCNB1	3	-0.156	69	61.9	inactive
CCNB1	4	-0.399	71.9	54.5	inactive

5 entries from above, set out differently:
target gene | reagent | log2 vehicle/camptothecin viability | viability with camptothecin (% of control) | viability without drug (% of control) | outcome
TNXA | 1 | -0.0912 | 79.9 | 75 | inactive
TNXA | 2 | -0.0772 | 89.5 | 84.8 | inactive
TNXA | 3 | -0.458 | 71.3 | 51.9 | inactive
TNXA | 4 | -0.433 | 56.3 | 41.7 | inactive
IL2RG | 1 | -0.0251 | 104 | 102 | inactive
